In US20240317862A1:
Changes are numbered by the printed parent chain. These are yes or no findings as the source states them, for the method shown. Some entries that bind do so weakly or less than the wild type. For some assays here: Tags and fused reporters may be left off the sequences shown.

Tests used:
[1] = biological target: T1, human B7-H3 on tumor cells (Hs578T, MDA-MB-436, MDA-MB-468, MDA-MB-231, MDA-MB-453, HT-29) (human) (UniProt Q5ZPR3); experiment: flow cytometry on Hs578T, MDA-MB-436 and MDA-MB-468 tumor cells
T1 sequence (looked up): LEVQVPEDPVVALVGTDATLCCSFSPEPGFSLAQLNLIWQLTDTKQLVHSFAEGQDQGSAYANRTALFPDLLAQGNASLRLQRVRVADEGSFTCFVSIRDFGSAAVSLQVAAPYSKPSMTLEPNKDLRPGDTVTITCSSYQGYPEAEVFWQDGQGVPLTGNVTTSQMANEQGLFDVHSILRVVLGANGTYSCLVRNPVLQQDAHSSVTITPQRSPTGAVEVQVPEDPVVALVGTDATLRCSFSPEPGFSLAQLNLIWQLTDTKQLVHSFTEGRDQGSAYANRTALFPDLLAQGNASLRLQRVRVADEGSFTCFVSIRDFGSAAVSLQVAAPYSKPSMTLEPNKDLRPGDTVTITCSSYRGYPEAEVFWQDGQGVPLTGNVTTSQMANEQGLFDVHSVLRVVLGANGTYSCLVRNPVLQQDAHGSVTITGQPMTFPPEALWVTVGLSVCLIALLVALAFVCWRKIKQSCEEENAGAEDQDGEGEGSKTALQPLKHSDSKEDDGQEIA

[2] = biological target: T2, His-labeled human B7-H3 (human) (UniProt Q5ZPR3); experiment: BLI (ForteBio Octet), His-labeled human B7-H3 on Ni-NTA sensor
T2 sequence (looked up): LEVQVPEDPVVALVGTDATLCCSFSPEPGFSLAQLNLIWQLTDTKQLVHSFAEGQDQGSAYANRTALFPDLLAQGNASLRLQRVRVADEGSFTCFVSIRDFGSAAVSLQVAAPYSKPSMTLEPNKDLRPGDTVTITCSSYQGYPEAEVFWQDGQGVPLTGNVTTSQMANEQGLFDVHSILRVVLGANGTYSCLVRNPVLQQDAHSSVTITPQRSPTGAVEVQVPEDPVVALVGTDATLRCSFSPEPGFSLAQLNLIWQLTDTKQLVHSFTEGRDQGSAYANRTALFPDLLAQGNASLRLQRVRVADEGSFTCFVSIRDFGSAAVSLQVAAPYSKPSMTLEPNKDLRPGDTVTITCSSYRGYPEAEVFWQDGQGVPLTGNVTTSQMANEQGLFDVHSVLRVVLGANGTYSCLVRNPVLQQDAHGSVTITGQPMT

[3] = biological target: T1, human B7-H3 on tumor cells (Hs578T, MDA-MB-436, MDA-MB-468, MDA-MB-231, MDA-MB-453, HT-29) (human); experiment: flow cytometry on MDA-MB-231, MDA-MB-453 and HT-29 tumor cells
[4] = biological target: T3, human B7-H3 (purchased from Acro Biosystems) (human) (UniProt Q5ZPR3); experiment: ELISA, plate coated with human B7-H3
T3 sequence (looked up): T2 sequence (looked up)

Measured: binding

B1: murine monoclonal antibody mAb152 (antibody, V domains shown)
VH: QVQLQQPGAELVRPGASVKLSCKASGYTFTAYWMNWVKQRPDQGLEWIGRIDPYDSETRYNQNFRDKARLTVDKSSSTAYMQLSSLTSEDSAVFYCARGVRIFDYWGQGTTLTVSS
VL: DIQMTQSPASLAASVGETVTITCRTSENIDYTLAWYQQKPGKSPQLLIYNANTLEDGVPSRFSGSGSGTHFSLKINSMQPEDTATYFCKQAYDVPRTFGGGTKLEIK
binds: [1] | [2] | [3] | [4]

B2: murine monoclonal antibody mAb272 (antibody, V domains shown)
VH: B1 VH
VL: B1 VL with H70L, S77N
binds: [1] | [2] | [3] | [4]
